# Results: paper PMC8347464, “Design, Synthesis, and In Vitro Antiproliferative Activity of Hydantoin and Purine Derivatives with the 4-Acetylphenylpiperazinylalkyl Moiety” (Materials, 2021)
# What was measured:
# Type in all cases: cell-based
# [1] = tested on: PC3 cells (human metastatic prostate cancer); assay: MTT assay, PC3 cells
# Text: (§1) Primary and metastatic colon cancer (SW480, SW620), metastatic prostate cancer (PC3), and human immortal keratinocyte (HaCaT) cell lines and immortal microvascular endothelial cells (HMEC-1) were obtained from the American Type Culture Collection (ATCC, Rockville, USA) and cultured in recommended medium, namely, MEM (Biowest SAS, France) for the SW480 and SW620 cells, RPMI 1640 (Biowest SAS, Nuaillé, France) for PC3, DMEM (Biowest SAS, France) for HaCaT and MCDB 131 (PAN BioTech, Aidenbach, Germany) for HMEC-1. The SW480 and SW620 cell lines were initiated by A. Leibovitz et al. and derived from a human primary colon adenocarcinoma and lymph node metastasis of the same patient. respectively. PC3 cell cells were initiated from a bone metastasis of a human prostatic adenocarcinoma. HaCaT cells were obtained from adult human skin, while HMEC-1 cells were established from the dermis of a human neonate. Cells were cultured in recommended medium supplemented with 10% FBS (Biowest SAS, Nuaillé, France), penicillin (100 U/mL), streptomycin […] (Gibco Life Technologies, Waltham MA, USA) and incubated at 37 °C under 5% CO2. The culture medium of HMEC-1 cells was additionally supplemented with glutamine (1 mM) and microvascular growth supplement (5%) (MVGS; Gibco, USA). The cells were cultured until 80% confluency was reached, harvested by treatment with 0.25% trypsin 0.02% EDTA (Gibco Life Technologies, Waltham, MA, USA) and subsequently used for further experiments.
# (§2) Cell viability was estimated using a conversion of 3-(4,5-dimethylthiazol-2-yl)-2,5-diphenyltetrazolium bromide salt (MTT) to insoluble formazan crystals by mitochondrial dehydrogenases, present in living cells. Cells were cultured in 96-well plates (l × 10^4 cells per well) and incubated for 24 h at 37 °C under 5% CO2. Next, the cells were treated with various concentrations of the tested compounds (ranging from 10 to 180 μM) and incubated for 72 h at 37 °C under 5% CO2. Untreated cells were used as the control. Next, the medium was removed, MTT solution (0.5 mg/mL) was added to each well, and the cells were incubated for 4 h at 37 °C under 5% CO2. After that, the obtained formazan crystals were dissolved in DMSO and isopropanol (1:1, v/v). The optical density of the dissolved crystals was measured at a wavelength of 570 nm using a UVM 340 reader (ASYS Hitech GmbH, Austria). Cell viability was presented as a percent of MTT reduced in treated cells versus control cells. The relative MTT level (%) was calculated as [A]/[B] × 100, where [A] is the absorbance of the test sample, and [B] is the absorbance of the control sample. The IC50 value was estimated using CompuSyn version 1.0.
# [2] = tested on: SW480 cells (human primary colon cancer); assay: MTT assay, SW480 cells
# Text: as §1, §2
# [3] = tested on: SW620 cells (human metastatic colon cancer); assay: MTT assay, SW620 cells
# Text: as §1, §2
Structure (SMILES),SI PC3 (IC50 normal cell line/IC50 cancer cell line) ([1]; normal cell line HaCaT),SI SW480 (IC50 normal cell line/IC50 cancer cell line) ([2]; normal cell line HaCaT),SI SW620 (IC50 normal cell line/IC50 cancer cell line) ([3]; normal cell line HaCaT),SI PC3 (IC50 normal cell line/IC50 cancer cell line) ([1]; normal cell line HMEC-1),SI SW480 (IC50 normal cell line/IC50 cancer cell line) ([2]; normal cell line HMEC-1),SI SW620 (IC50 normal cell line/IC50 cancer cell line) ([3]; normal cell line HMEC-1)
"CC(=O)c1ccc(N2CCN(CCCCN3C(=O)NC4(CCc5ccccc54)C3=O)CC2)cc1 (racemic) [Compound 1, (R,S)-1-(4-(4-(4-Acetylphenyl)piperazin-1-yl)butyl)-2′,3′-dihydrospiro[imidazolidine-4,1′-indene]-2,5-dione]",0.72,0.77,0.62,,,
"CC(=O)c1ccc(N2CCN(CCCCCN3C(=O)NC4(CCc5ccccc54)C3=O)CC2)cc1 (racemic) [Compound 2, (R,S)-1-(5-(4-(4-Acetylphenyl)piperazin-1-yl)pentyl)-2′,3′-dihydrospiro[imidazolidine-4,1′-indene]-2,5-dione]",0.62,0.55,0.52,,,
"CC(=O)c1ccc(N2CCN(CCCCN3C(=O)NC4(CCCc5ccccc54)C3=O)CC2)cc1 (racemic) [Compound 3, (R,S)-1-(4-(4-(4-Acetylphenyl)piperazin-1-yl)butyl)-3′,4′-dihydro-2′H-spiro[imidazolidine-4,1′-naphthalene]-2,5-dione]",1.76,0.88,1.09,,,
"CC(=O)c1ccc(N2CCN(CCCCCN3C(=O)NC4(CCCc5ccccc54)C3=O)CC2)cc1 (racemic) [Compound 4, (R,S)-1-(5-(4-(4-Acetylphenyl)piperazin-1-yl)pentyl)-3′,4′-dihydro-2′H-spiro[imidazolidine-4,1′-naphthalene]-2,5-dione]",1.79,2.19,2.85,7.25,8.88,11.57
"CC(=O)c1ccc(N2CCN(CCCCCN3C(=O)NC4(Cc5ccccc5C4)C3=O)CC2)cc1 [Compound 6, (R,S)-1-{5-[4-(4-Acetylophenyl)piperazyn-1-yl]pentyl}-1′,3′-dihydro-2H,5H-spiro[imidazolidine-4,2′-indene]-2,5-dione]",1.67,2.95,2.02,,,
"CC(=O)c1ccc(N2CCN(CCCCn3ccn4c5c(=O)n(C)c(=O)n(C)c5nc34)CC2)cc1 [Compound 9, 8-(4-(4-(4-Acetylphenyl)piperazin-1-yl)butyl)-1,3-dimethyl-1H-imidazo[2,1-f]purine-2,4(3H,8H)-dione]",0.72,0.47,0.50,,,
"CC(=O)c1ccc(N2CCN(CCCCn3c(C)cn4c5c(=O)n(C)c(=O)n(C)c5nc34)CC2)cc1 [Compound 10, 8-(4-(4-(4-Acetylphenyl)piperazin-1-yl)butyl)-1,3,7-trimethyl-1H-imidazo[2,1-f]purine-2,4(3H,8H)-dione]",1.11,,0.73,,,
"CC(=O)c1ccc(N2CCN(CCCCCn3ccn4c5c(=O)n(C)c(=O)n(C)c5nc34)CC2)cc1 [Compound 11, 8-(5-(4-(4-Acetylphenyl)piperazin-1-yl)pentyl)-1,3-dimethyl-1H-imidazo[2,1-f]purine-2,4(3H,8H)-dione]",0.97,,0.60,,,
"CC(=O)c1ccc(N2CCN(CCCCn3c(=O)ccn4c5c(=O)n(C)c(=O)n(C)c5nc34)CC2)cc1 [Compound 12, 9-(4-(4-(4-Acetylphenyl)piperazin-1-yl)butyl)-1,3-dimethylpyrimido[2,1-f]purine-2,4,8(1H,3H,9H)-trione]",1.17,,0.49,,,
"CC(=O)c1ccc(N2CCN(CCCCCn3c(=O)ccn4c5c(=O)n(C)c(=O)n(C)c5nc34)CC2)cc1 [Compound 13, 9-(5-(4-(4-Acetylphenyl)piperazin-1-yl)pentyl)-1,3-dimethylpyrimido[2,1-f]purine-2,4,8(1H,3H,9H)-trione]",1.33,,,,,
"CC(=O)c1ccc(N2CCN(CCCCn3c(=O)c(Br)cn4c5c(=O)n(C)c(=O)n(C)c5nc34)CC2)cc1 [Compound 14, 9-(4-(4-(4-Acetylphenyl)piperazin-1-yl)butyl)-7-bromo-1,3-dimethylpyrimido[2,1-f]purine-2,4,8(1H,3H,9H)-trione]",1.06,,,,,
